Experimental data taken from publication PMC6945409.
No constants are given. Whether binding was seen depends on the method and setting. In cells and extracts the contact can be indirect.

Protein sequences, listed by entry. Tags and fused reporters are not part of them. Residues count along the entry.
UniProt P32883: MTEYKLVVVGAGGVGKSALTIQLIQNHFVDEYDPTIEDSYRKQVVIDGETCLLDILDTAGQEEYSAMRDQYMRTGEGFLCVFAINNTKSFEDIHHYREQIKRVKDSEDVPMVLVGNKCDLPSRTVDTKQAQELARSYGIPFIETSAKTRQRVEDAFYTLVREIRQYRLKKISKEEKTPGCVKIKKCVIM
UniProt P08556: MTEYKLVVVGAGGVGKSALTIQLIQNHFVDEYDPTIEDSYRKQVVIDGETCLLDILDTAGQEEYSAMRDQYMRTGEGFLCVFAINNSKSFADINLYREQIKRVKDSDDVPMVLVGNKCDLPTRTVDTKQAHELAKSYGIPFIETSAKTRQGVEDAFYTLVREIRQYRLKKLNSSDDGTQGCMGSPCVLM
UniProt P25911: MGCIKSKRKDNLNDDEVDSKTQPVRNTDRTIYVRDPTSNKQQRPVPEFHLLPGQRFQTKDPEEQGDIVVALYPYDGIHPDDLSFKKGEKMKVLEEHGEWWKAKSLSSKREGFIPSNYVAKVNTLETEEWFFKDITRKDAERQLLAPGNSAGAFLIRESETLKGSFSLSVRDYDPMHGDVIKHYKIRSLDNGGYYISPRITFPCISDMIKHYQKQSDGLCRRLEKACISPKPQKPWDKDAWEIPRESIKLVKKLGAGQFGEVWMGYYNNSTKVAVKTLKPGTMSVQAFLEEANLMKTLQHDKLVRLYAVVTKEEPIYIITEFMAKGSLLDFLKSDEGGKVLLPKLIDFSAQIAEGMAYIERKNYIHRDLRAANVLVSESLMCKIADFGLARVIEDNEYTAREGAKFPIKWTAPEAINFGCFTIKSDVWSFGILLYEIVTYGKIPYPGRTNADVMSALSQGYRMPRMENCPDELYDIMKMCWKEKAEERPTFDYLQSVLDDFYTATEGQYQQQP
UniProt P27512, residues 20-289: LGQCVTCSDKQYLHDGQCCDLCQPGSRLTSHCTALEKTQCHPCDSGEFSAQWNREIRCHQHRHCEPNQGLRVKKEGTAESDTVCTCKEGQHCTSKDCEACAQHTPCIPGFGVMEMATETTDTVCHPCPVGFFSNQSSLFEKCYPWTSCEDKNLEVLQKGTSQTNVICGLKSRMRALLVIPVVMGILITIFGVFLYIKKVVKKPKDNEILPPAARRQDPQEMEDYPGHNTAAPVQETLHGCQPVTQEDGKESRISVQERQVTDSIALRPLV

Assays:
Assay in all cases: co-IP; endogenous proteins; macrophages stimulated with anti-CD40 antibody (1, 3, 6 ug/ml; 3 or 10 min), lysed in buffer with NP-40; 200 ug protein with 1 ug antibody and protein G agarose overnight at 4 C, washed 4 times, western blot
[1] = molecular target: H-Ras (Harvey Rat Sarcoma) (mouse (endogenous in BALB/c peritoneal macrophages)) (UniProt Q61411)
[2] = molecular target: K-Ras (Kirsten rat sarcoma) (mouse (endogenous in BALB/c peritoneal macrophages)) (UniProt P32883)
[3] = molecular target: N-Ras (Neuroblastoma Rat Sarcoma) (mouse (endogenous in BALB/c peritoneal macrophages)) (UniProt P08556)

Measured: binding

Lyn (Lck/Yes novel tyrosine kinase) (from UniProt P25911 1-512)
no binding: [1] | [2] | [3]

CD40 (from UniProt P27512 20-289) (receptor)
no binding: [1] | [2] | [3]
